Experimental data reported in PMC11559001.
These are yes or no findings as the source states them, for the method shown. Binding seen in cells or lysates may run through a third protein. These calls come from enrichment with a bait or labelling near it, and not all partners need be listed. For some of these results: A no says only that the protein was not detected with the bait. Tags and fused reporters may be left off the sequences shown.

Tests used:
Assay in all cases: affinity purification with mass spectrometry; purified MBP-labelled TF homolog incubated with total protein of its corresponding M. xanthus deletion cells; Dextrin Beads; wash 25 mM Tris-HCl, 200 mM NaCl, pH 7.8; eluted with 10 mM maltose; detected by MS; only the target purified
[1] = target: T1, MXAN_1178-MBP (M. xanthus DK1622) (UniProt Q1DD35)
T1 sequence: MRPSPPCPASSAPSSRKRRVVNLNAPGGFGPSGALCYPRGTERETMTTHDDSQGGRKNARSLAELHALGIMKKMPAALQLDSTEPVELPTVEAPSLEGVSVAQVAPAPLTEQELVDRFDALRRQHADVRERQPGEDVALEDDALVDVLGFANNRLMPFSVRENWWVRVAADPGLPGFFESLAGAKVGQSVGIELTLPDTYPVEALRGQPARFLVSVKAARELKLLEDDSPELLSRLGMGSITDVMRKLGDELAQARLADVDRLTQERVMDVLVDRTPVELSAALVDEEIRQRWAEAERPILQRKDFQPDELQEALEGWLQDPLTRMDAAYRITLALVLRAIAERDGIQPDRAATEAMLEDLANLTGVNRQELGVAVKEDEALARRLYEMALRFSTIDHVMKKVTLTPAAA

[2] = target: T2, MXAN_1713-MBP (M. xanthus DK1622) (UniProt Q1DBK9)
T2 sequence: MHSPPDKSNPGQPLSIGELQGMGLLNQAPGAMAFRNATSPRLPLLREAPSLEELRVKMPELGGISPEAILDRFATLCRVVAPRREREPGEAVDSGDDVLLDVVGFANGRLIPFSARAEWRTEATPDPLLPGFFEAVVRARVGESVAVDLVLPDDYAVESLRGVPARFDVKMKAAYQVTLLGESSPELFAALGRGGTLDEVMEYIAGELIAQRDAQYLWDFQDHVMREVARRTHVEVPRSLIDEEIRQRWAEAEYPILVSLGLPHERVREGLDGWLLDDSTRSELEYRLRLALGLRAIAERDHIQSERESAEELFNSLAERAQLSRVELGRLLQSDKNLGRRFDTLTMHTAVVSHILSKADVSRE

[3] = target: T3, MXAN_2013-MBP (M. xanthus DK1622) (UniProt Q1DAT1)
T3 sequence: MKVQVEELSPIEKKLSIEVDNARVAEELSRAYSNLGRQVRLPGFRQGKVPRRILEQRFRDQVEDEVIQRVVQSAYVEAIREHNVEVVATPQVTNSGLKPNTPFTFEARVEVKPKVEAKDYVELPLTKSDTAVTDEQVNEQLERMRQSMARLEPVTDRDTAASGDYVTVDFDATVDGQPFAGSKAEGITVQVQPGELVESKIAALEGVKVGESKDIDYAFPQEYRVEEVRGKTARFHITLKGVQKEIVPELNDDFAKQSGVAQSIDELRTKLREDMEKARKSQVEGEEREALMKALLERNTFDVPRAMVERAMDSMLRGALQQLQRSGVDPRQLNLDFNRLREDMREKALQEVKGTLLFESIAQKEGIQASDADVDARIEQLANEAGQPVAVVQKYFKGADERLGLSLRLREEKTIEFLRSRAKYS

[4] = target: T4, MXAN_6153-MBP (M. xanthus DK1622) (UniProt Q1CZ89)
T4 sequence: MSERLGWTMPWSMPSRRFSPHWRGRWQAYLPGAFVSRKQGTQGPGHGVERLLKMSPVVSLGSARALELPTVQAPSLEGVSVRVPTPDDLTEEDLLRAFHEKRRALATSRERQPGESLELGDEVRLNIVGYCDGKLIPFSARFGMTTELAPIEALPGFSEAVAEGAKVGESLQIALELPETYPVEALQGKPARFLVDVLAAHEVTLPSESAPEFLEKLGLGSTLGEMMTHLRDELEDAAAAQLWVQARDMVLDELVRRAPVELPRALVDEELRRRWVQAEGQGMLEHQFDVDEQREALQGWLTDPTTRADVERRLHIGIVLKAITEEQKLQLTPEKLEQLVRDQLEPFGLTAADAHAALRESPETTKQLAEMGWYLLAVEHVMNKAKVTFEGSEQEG

binding [1]: binds
binding [2]: binds
binding [3]: no binding
binding [4]: binds
Substance: OmpA
